The data set can be described thus: Search of ligands against database of healthy tissues and tumor samples characterized by MHC proteomics. Set-up: species or system human. As to conditions: for Benign Tissue: number of benign tissue samples in ligandome database presenting the ligand; for Tumors: number of tumor samples in ligandome database presenting the ligand.

Ends that are not written are not given here.

Consider VLFENTDSVHL [VLFENTDSVHL], for which the “Benign Tissue” value was determined as 1 and the Tumors stood at 19.

Consider “LLLPLLPPLSP [IGFBPL1-derived HLA-A*02:01 ligand, tumor antigen]”, for which the “Benign Tissue” value is on record as 0 and the Tumors is reported as 2.

For QYNPIRTTF [QYNPIRTTF], the “Benign Tissue” value stood at 0 and the Tumors is 2.

Turning to FLIENLLAA [FLIENLLAA], the “Benign Tissue” value is reported as 0 and the Tumors is reported as 0.

As for “SAAMVFSAL [ATP6V0C-derived HLA-C*03:03 ligand, tumor antigen]”, the “Benign Tissue” value was 0 and the Tumors came to 2.

With ALLSGVRQV [ALLSGVRQV], the “Benign Tissue” value was found to be 0 and the Tumors is 0.

Consider SYQKVIELF [SYQKVIELF], for which the “Benign Tissue” value stood at 7 and the Tumors turned out to be 2.

As to FLDETLRSLA [FLDETLRSLA], the “Benign Tissue” value is 0 and the Tumors was determined as 3.

Turning to IYPDITYSL [IYPDITYSL], the “Benign Tissue” value turned out to be 0 and the Tumors was determined as 0.

Values taken from patent publication US12357694B2, “Methods and compositions for use of tumor self-antigens in adoptive immunotherapy” (THE CHILDREN'S HOSPITAL OF PHILADELPHIA, priority 2018, dated 2025).
